## Library screen at single concentrations

Source: ChEMBL document CHEMBL3988442, “University of Dundee, Small-Polar-MMV Screening Library” (2021).

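Phenotypic screen: M. tuberculosis growth, glucose 7H9 medium, 3 days; the read-out is not stated. Concentration: 500 µM. Higher reads as more growth inhibition (inferred: compounds with an IC50 in retests scored well above the rest). About 18,000 compounds were tested under these conditions; 7.9% (about 1,400) showed 50% or more at least once.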

Results are given as percent effect.
The controls that fix the scale are not given in the record; negative values are as filed.
Compounds were drawn at random from those tested, without regard to their results.

Result for CN(C)C(=O)CN(C)C(=O)Cc1cccs1 was 10.05%.
Result for O=C(NCC1CCCNC1)c1ccccc1 (centres unmarked) was 30.63%.
Result for CN(CCc1ccccn1)C(=O)C1CCCNCC1 (centres unmarked) was 1.797%.
Result for OC1(CNCc2ccccn2)CCc2ccccc21 (centres unmarked) was 24.06%.
Result for CC(C)S(=O)(=O)CCCn1nnc(-c2ccsc2)n1 was 69.45%.
Result for c1ccc2[nH]c(NCC3CCCO3)nc2c1 (centres unmarked) was 45.93%.
Result for O=C(NCc1ccccc1)N1CCNCC1 was 2.654%.
Result for Cc1cc(C(=O)N2CCCNCC2)c(F)cc1F was 27.71%.
Result for CCS(=O)(=O)NC1CCCNC1 (centres unmarked) was 0.7982%.
Result for CC(C)(O)C(=O)NC1CCN(CC2CCCC2)CC1 was 2.482%.
Result for CC(Nc1nc2ccccc2o1)C(=O)N1CCOCC1 (centres unmarked) was 48.79%.
Result for CCC(NC(=O)c1cnc(SC)nc1)c1ccnn1C (centres unmarked) was 3.126%.
Result for CCOc1cccc(NC(=O)c2ccc(C)[nH]c2=O)n1 was -12.95%.
Result for CNC(=O)C(C)S(=O)(=O)Cc1ccc(F)cc1Cl (centres unmarked) was 15.5%.
Result for CNCC(C)CNC(=O)c1ccc(C(N)=O)nc1 (centres unmarked) was 13.24%.
Result for CC(=O)NCc1ccc(C(C)=O)s1 was 17.5%.
Result for COc1cccc(C(=O)N2CCC(O)(C(F)(F)F)C2)c1 (centres unmarked) was 34.46%.
Result for CCOC(=O)CCNC(=O)Nc1ncccc1C was 14.71%.
Result for O=C(CN1CCC(CO)CC1)NCCc1cccs1 was 48.44%.
Result for CC(=O)Nc1cncc(Cl)n1 was 1.837%.
Result for Cc1cccc(OC2CCS(=O)(=O)C2)c1 (centres unmarked) was 1.627%.
Result for Nc1ncccc1CN1CCC(N2CCCCC2)C1 (centres unmarked) was -0.8311%.
Result for NC(=O)C(N)c1ccc2c(c1)OCCO2 (centres unmarked) was 96.45%.
Result for NC(=O)c1cc(N2CCCC2)nc2ccccc12 was 1.074%.
Result for Cc1cccnc1CCNC(=O)Cc1cccnc1 was 14.94%.
Result for COCCC(=O)N(C)Cc1cccnc1OC was 30.38%.
Result for Nc1nnc(SCC(=O)OC2CCCCC2)[nH]1 was 7.716%.
Result for O=C(c1cc(C2CC2)on1)N1CCC2(CCNCC2)C1 was 23.53%.
Result for CC(C)(C(=O)N1CCC(N)CC1)c1cccc(F)c1 was 23.85%.
Result for Cc1ccsc1CNC(=O)C(C)n1cncn1 (centres unmarked) was -14.2%.
Result for COc1cccc(OC)c1OCC(O)COC(C)C (centres unmarked) was 24.57%.
Result for CN(C(=O)[C@@H](N)Cc1ccccc1)C1CCCC1 was 36.03%.
Result for CN(C)CCOc1cc(C#N)ccn1 was 4.419%.
Result for C=C(C)c1nc(C#N)c(NCc2ccco2)o1 was 84.11%.
Result for NC(=O)CN1CCC(OCCCc2ccccc2)C1 (centres unmarked) was 73.81%.
Result for CC(C)(C)C(=O)Nc1ccc(-n2cnnn2)cc1 was 13.43%.
Result for O=C(NCCCN1CCCC1)Nc1ccccc1 was 10.67%.
Result for COCCN1CCN(CCc2ccccn2)CC1C (centres unmarked) was 1.987%.
Result for NCc1cccc(N)n1 was 10.07%.
Result for CCCNC(=O)C1CCCN(C(=O)N(C)C)C1 (centres unmarked) was 8.992%.
Result for Cc1c(C(=O)N(CC2CCOC2)C2CC2)cnn1C (centres unmarked) was -11.38%.
Result for CN(CCn1cccn1)C(=O)c1ccc(CN)cc1 was 7.515%.
Result for CS(=O)(=O)Nc1ccc(F)c(F)c1 was 23.1%.
Result for CCC(OC)C(=O)N1CC(Oc2ccccc2F)C1 (centres unmarked) was 38%.
Result for CC(C)(C)OC(=O)N[C@H]1CS(=O)(=O)[C@@H]2CNC[C@H]12 was -8.14%.
Result for Cc1nn(C)c2nc(NCC3CCOC3)sc12 (centres unmarked) was 13.13%.
Result for Cn1c(NC(=O)c2ccccc2I)cc(=O)n(C)c1=O was 6.576%.
Result for CNC(=O)NC(=O)C(C)OC(=O)c1ccc(CO)cc1 (centres unmarked) was 5.65%.
Result for CN(C)c1ncccc1CNC(=O)C1CCS(=O)(=O)C1 (centres unmarked) was 10.17%.
Result for CCN(CCO)Cc1cc(=O)n2cc(C)ccc2n1 was -2.805%.
Result for COC(=O)CC1CN(CCN2CCCCC2)CCO1 (centres unmarked) was -14.22%.
Result for Cn1cccc1CN(CCC#N)CCN1CCOCC1 was 30.38%.
Result for Cc1n[nH]c(C)c1C(N)C(=O)NCCN1CCCC1 (centres unmarked) was -15.26%.
Result for COc1cccc(S(=O)(=O)N2C[C@H](C3CC3)[C@@H](N)C2)c1 was 35.33%.
Result for CC(=O)NCc1ccc(-c2csc(N)n2)s1 was 29.61%.
Result for Cc1nc(C)c(CN2CC3(CCNCC3)OC2=O)s1 was 4.697%.

6 of the entries, repeated:

| Compound | effect |
|---|---|
| `CCCNC(=O)C1CCCN(C(=O)N(C)C)C1` (centres unmarked) | 8.992 |
| `CN(C)c1ncccc1CNC(=O)C1CCS(=O)(=O)C1` (centres unmarked) | 10.17 |
| `COCCN1CCN(CCc2ccccn2)CC1C` (centres unmarked) | 1.987 |
| `CNC(=O)C(C)S(=O)(=O)Cc1ccc(F)cc1Cl` (centres unmarked) | 15.5 |
| `CC(C)S(=O)(=O)CCCn1nnc(-c2ccsc2)n1` | 69.45 |
| `CCC(OC)C(=O)N1CC(Oc2ccccc2F)C1` (centres unmarked) | 38 |